Results are given in words; binding and its absence hold for the method and conditions named. Some binding calls cover weakened binding; strength is not graded here.
Legend:
[1] = molecular target: T1, biotinylated peptide encoding the cytosolic sequence of CD147 (human); test: pull-down; 1 μg biotinylated peptide on streptavidin-coated beads, GST proteins 0.2 μg in PBS, 0.2% BSA, 1 h at 4 °C; immunoblot with anti-GST; both purified
T1 sequence (peptide, biotin on the N-terminus): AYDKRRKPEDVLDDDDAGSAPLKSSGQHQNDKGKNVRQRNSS

Sequences of proteins named here, by UniProt entry; tags and fusion partners are left off. Residues count along the entry.
UniProt O43707: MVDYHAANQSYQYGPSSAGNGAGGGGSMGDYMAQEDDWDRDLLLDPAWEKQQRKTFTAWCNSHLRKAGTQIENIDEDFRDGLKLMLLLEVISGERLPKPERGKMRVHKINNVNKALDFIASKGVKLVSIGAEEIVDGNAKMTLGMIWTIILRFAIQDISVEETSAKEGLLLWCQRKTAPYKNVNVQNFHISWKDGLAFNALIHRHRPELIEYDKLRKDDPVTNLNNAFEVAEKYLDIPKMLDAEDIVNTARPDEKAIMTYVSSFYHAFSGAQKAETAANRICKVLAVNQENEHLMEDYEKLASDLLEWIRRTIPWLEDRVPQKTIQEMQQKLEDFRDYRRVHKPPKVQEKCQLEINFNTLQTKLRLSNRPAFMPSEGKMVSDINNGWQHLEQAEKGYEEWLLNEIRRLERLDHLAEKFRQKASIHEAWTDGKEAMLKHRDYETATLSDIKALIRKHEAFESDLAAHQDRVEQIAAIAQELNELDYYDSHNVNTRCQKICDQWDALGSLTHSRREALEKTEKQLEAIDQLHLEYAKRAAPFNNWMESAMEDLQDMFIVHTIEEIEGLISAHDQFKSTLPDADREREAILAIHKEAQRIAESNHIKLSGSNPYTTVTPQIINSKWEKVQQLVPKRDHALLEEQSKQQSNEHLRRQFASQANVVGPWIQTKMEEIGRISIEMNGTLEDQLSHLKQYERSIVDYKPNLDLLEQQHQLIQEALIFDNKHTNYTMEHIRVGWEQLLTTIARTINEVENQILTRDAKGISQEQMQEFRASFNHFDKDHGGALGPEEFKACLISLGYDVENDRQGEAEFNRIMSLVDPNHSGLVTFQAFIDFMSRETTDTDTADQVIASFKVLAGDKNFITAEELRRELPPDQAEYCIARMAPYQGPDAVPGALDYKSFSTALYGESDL
UniProt P15311, residues 2-296: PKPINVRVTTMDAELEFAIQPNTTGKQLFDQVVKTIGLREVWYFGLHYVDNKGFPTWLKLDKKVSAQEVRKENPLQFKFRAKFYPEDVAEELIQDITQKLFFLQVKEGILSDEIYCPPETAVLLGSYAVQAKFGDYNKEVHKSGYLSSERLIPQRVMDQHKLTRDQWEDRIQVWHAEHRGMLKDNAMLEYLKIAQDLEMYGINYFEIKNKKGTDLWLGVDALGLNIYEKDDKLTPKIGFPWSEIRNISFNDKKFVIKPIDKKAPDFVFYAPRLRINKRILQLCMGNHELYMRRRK

[2] = molecular target: T1, biotinylated peptide encoding the cytosolic sequence of CD147 (human); test: SPR; BIAcore T200, biotinylated peptides captured on streptavidin chip (630 RU CD147, 286 RU CD44), GST fusions as analytes, non-reducing buffer (PBS, 0.02% Tween-20), 25 μl/min, 60 s association, 60 s dissociation; both purified

Substance | binding [1] | binding [2]
recombinant glutathione-S-transferase (GST)–Actn4 fusion protein (from UniProt O43707 1-911) | binds | –
GST-coupled four-point-one, ezrin, radixin, moesin (FERM) domain of ezrin (from UniProt P15311 2-296) (domain or fragment) | – | binds weakly
